Taken from: PubChem BioAssay AID504804 (Drosophila RNAi Screening Center, 2011)
Assay: 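dsRNAs that improve Kc cell survival under doxorubicin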 (primary screen). System: Drosophila Kc cells. Knock-down reagent: long dsRNA against Drosophila genes, 0.5 µg dsRNA per well. Time to read-out: 96 h (48 h knock-down, then 48 h drug). Treatment: doxorubicin 5 µg/ml for 48 h, added 48 h after dsRNA. Measured: 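Luminescent ATP counts per replicate, not normalised, reflecting viable cells after 48 h dsRNA knock-down followed by 48 h of 5 µg/ml doxorubicin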. Scale: raw ATP luminescence: higher = more viable cells, protection from doxorubicin. Active means: 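Active when both duplicate wells lie at least 2 SD above the plate mean and protection is confirmed by rescreening and independent dsRNAs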.
In all, the deposit lists about 19,000 reagents; shown is an unselected part of those that have a named target and a result. Over the whole deposit, 47 (0.25%) got an active call. 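Signals are raw, not normalised; exact z-scores behind calls not deposited; actives needed confirmation, so some wells reaching 2 SD are inactive.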 Entries without a mark were called inactive. Reagents against one gene are numbered here.

CG33467 (GeneID 2768834)
- raw ATP luminescence, replicate 1: 1.01e5
- raw ATP luminescence, replicate 2: 98093

CG13539 (GeneID 37680)
- raw ATP luminescence, replicate 1: 42363
- raw ATP luminescence, replicate 2: 48850

PolD3 (GeneID 34892)
- raw ATP luminescence, replicate 1: 96157
- raw ATP luminescence, replicate 2: 69420

promL (GeneID 38372)
- raw ATP luminescence, replicate 1: 38313
- raw ATP luminescence, replicate 2: 55713

kdn (GeneID 31579)
- raw ATP luminescence, replicate 1: 35360
- raw ATP luminescence, replicate 2: 52770

CG17724 (GeneID 246682)
- raw ATP luminescence, replicate 1: 66250
- raw ATP luminescence, replicate 2: 57197

CG15927 (GeneID 32193)
- raw ATP luminescence, replicate 1: 3.15e5
- raw ATP luminescence, replicate 2: 2.90e5

CG17746 (GeneID 38400)
- raw ATP luminescence, replicate 1: 49183
- raw ATP luminescence, replicate 2: 38253

rn (GeneID 40879) #1
- raw ATP luminescence, replicate 1: 24477
- raw ATP luminescence, replicate 2: 19510

rn (GeneID 40879) #2
- raw ATP luminescence, replicate 1: 44210
- raw ATP luminescence, replicate 2: 56957

rn (GeneID 40879) #3
- raw ATP luminescence, replicate 1: 58080
- raw ATP luminescence, replicate 2: 47167

rn (GeneID 40879) #4
- raw ATP luminescence, replicate 1: 66363
- raw ATP luminescence, replicate 2: 53977

pain (GeneID 37985)
- raw ATP luminescence, replicate 1: 31710
- raw ATP luminescence, replicate 2: 52160

sra (GeneID 47384)
- raw ATP luminescence, replicate 1: 51083
- raw ATP luminescence, replicate 2: 57217

Bicra (GeneID 43435)
- raw ATP luminescence, replicate 1: 38370
- raw ATP luminescence, replicate 2: 27570

CG13398 (GeneID 34169)
- raw ATP luminescence, replicate 1: 39930
- raw ATP luminescence, replicate 2: 79333

CG11811 (GeneID 39213)
- raw ATP luminescence, replicate 1: 79457
- raw ATP luminescence, replicate 2: 61327

hog (GeneID 318105)
- raw ATP luminescence, replicate 1: 1.92e5
- raw ATP luminescence, replicate 2: 1.84e5

CG5089 (GeneID 36859)
- raw ATP luminescence, replicate 1: 47037
- raw ATP luminescence, replicate 2: 52390

CG31624 (GeneID 35393)
- raw ATP luminescence, replicate 1: 72647
- raw ATP luminescence, replicate 2: 64957

CG16888 (GeneID 34789)
- raw ATP luminescence, replicate 1: 65040
- raw ATP luminescence, replicate 2: 70377

Ilp6 (GeneID 31220)
- raw ATP luminescence, replicate 1: 41510
- raw ATP luminescence, replicate 2: 67220

CG5554 (GeneID 37775)
- raw ATP luminescence, replicate 1: 49847
- raw ATP luminescence, replicate 2: 42797

CG14506 (GeneID 43467)
- raw ATP luminescence, replicate 1: 37480
- raw ATP luminescence, replicate 2: 35420

ValRS (GeneID 45783)
- raw ATP luminescence, replicate 1: 54830
- raw ATP luminescence, replicate 2: 49570

Adi1 (GeneID 326189)
- raw ATP luminescence, replicate 1: 1.33e5
- raw ATP luminescence, replicate 2: 66427

pie (GeneID 44315)
- raw ATP luminescence, replicate 1: 67220
- raw ATP luminescence, replicate 2: 57813

Cog4 (GeneID 34442)
- raw ATP luminescence, replicate 1: 84947
- raw ATP luminescence, replicate 2: 73300
